The text below walks through data of paper PMC12059050.

Sequences of proteins named here, by UniProt entry; tags and fusion partners are left off.
UniProt Q9UBN7: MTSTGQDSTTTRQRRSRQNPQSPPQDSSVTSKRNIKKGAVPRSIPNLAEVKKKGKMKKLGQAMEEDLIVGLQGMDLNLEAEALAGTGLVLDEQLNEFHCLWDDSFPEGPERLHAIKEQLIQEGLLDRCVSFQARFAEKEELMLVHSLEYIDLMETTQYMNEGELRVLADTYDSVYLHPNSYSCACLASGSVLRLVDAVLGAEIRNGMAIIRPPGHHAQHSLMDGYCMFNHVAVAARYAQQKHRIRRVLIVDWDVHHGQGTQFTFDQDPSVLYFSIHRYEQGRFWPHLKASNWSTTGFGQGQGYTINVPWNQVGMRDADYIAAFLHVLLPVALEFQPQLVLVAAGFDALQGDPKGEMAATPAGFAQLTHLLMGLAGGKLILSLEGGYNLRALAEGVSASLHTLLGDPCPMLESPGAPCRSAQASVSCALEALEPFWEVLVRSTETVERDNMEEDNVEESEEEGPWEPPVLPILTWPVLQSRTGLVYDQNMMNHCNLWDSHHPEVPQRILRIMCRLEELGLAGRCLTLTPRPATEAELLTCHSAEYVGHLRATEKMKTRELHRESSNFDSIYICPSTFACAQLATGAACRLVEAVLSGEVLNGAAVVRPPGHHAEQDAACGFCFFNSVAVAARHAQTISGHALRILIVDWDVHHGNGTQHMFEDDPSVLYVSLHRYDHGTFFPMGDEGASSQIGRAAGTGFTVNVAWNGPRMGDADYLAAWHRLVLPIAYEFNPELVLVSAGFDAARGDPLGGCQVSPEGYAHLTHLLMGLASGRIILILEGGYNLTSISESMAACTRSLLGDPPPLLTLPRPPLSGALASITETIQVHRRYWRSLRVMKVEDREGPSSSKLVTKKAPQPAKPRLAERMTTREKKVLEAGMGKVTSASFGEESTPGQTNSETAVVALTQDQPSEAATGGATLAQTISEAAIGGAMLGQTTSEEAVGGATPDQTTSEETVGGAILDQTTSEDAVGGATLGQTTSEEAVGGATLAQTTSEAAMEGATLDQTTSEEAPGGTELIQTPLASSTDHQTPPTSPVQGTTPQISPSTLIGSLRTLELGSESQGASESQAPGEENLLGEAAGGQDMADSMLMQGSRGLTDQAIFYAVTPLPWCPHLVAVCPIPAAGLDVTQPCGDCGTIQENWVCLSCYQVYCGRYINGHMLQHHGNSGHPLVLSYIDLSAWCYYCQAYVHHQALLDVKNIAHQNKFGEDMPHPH

This test deals with TurboID-TAX1BP1 (human (endogenous in HeLa)) (UniProt Q86VP1). The test can be described thus: proximity labelling; HeLa knock-in cells expressing TurboID-TAX1BP1; aggrephagy conditions (8 h Btz, 15 h recovery, 3 h Baf), 50 uM biotin; RIPA lysate on streptavidin magnetic beads, label-free quantitative mass spectrometry, compared with cells expressing free TurboID or with untreated cells; several hits also by immunoblot of the purified biotinylated material. For orientation: Immunoblotting shows a protein as a band on a membrane.

No constants are given. Whether binding was seen depends on the method and setting. In cells and extracts the contact can be indirect. Here binding means that the protein was enriched with, or labelled near, the bait; the list need not be complete. No binding means not detected with the bait.

For HDAC6 (from UniProt Q9UBN7 1-1215), the binding entry was “no binding”.
